Experimental data taken from PubChem BioAssay AID328 (DTP/NCI, 2004).
The list shows only some results of the screen, not a fair sample: it gathers tests that were run many times, whatever their T/C, doses with no T/C, and many T/C values between a quarter and a half above the control. Further doses and runs are listed elsewhere. T/C: endpoint of the treated group in % of that of the vehicle group. Some entries give survivors of the animals treated and no T/C: the source files T/C as zero there, which appears to mark a toxic dose or a test without result, not a measured value. Some doses without a T/C left all or most animals alive at the check, yet need not have been tolerated: survival well below the control is almost never listed, so the zero probably covers shortened survival too. Counts of survivors are from the toxicity check (mostly the fifth day) where no day follows; animals may have died later. Schedule codes are those of the source, read here as Q, the interval in days (D) or hours (H), X, the number of doses. Some entries hold several experiments; their values stand side by side, smallest first. For survival time, the PubChem record calls one and a half times the control and up active, and a quarter to a half above the control has no call in these data; cut-offs in other NCI protocols can differ. Some T/C values are followed by the survivors on the day toxicity was checked, most often the fifth; where none is given, no animal had died by that day.

Test system: BDF1 mice, P388 leukemia ip, median survival T/C
Test: NCI In Vivo Anticancer Drug Screen. Data for tumor model P388 Leukemia (intraperitoneal) in B6D2F1 (BDF1) mice
Details: T/C endpoint: median survival time, higher T/C = longer survival
Method in brief: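 T/C = treated-group survival ÷ vehicle-control survival; tumour transplanted into mice before dosing.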

[1] = dose: 100.0 mg/kg/injection, schedule: Q04DX003 (ip), vehicle: saline with Tween-80
[2] = dose: 200.0 mg/kg/injection, schedule: Q04DX003 (ip), vehicle: saline with Tween-80
[3] = dose: 100.0 mg/kg/injection, schedule: Q01DX009 (ip), vehicle: saline with Tween-80
[4] = dose: 200.0 mg/kg/injection, schedule: Q01DX009 (ip), vehicle: saline with Tween-80
[5] = dose: 400.0 mg/kg/injection, schedule: Q04DX003 (ip), vehicle: saline with Tween-80
[6] = dose: 400.0 mg/kg/injection, schedule: Q01DX009 (ip), vehicle: saline with Tween-80
[7] = dose: 25.0 mg/kg/injection, schedule: Q01DX009 (ip), vehicle: Klucel (hydroxypropylcellulose) (HPC)
[8] = dose: 25.0 mg/kg/injection, schedule: Q01DX009 (ip), vehicle: saline
[9] = dose: 50.0 mg/kg/injection, schedule: Q01DX009 (ip), vehicle: saline
[10] = dose: 100.0 mg/kg/injection, schedule: Q01DX009 (ip), vehicle: saline

Q: Which survivor count [1] does the source give for `C[n+]1c(-c2ccccc2)c2cc(N)ccc2c2ccc(N)cc21` here?
A: 0 of 6

Q: What about the survivor count [2] of the same compound?
A: 0 of 6

Q: Which survivor count (dose: 25.0 mg/kg/injection, schedule: Q01DX009 (ip), vehicle: saline with Tween-80) does the source give for `CN(C)c1ccc(N=C2C=CC(=O)C=C2)cc1` here?
A: 0 of 6

Q: And the survivor count (dose: 50.0 mg/kg/injection, schedule: Q01DX009 (ip), vehicle: saline with Tween-80)?
A: 0 of 6

Q: And the survivor count [3]?
A: 0 of 6

Q: What about the survivor count [4] of the same compound?
A: 0 of 6

Q: `C[N+](C)(CCc1ccccc1)CC(O)COc1ccccc1` (centres undefined) was tested. Which survivor count (dose: 38.0 mg/kg/injection, schedule: Q01DX009 (ip), vehicle: Klucel (hydroxypropylcellulose) (HPC)) did it give?
A: 1 of 6

Q: With `CCOc1ccc2nc3cc(N)ccc3c(N)c2c1` as the compound, how does the T/C (dose: 100.0 mg/kg/injection, schedule: Q04DX003 (ip), vehicle: saline) read?
A: 126 % of control

Q: And the T/C (dose: 150.0 mg/kg/injection, schedule: Q04DX003 (ip), vehicle: saline)?
A: 127 % of control

Q: Which survivor count [4] does the source give for `Clc1nc(NCc2ccccc2)c2cn[nH]c2n1` here?
A: 1 of 6

Q: Which T/C (dose: 4.12 mg/kg/injection, schedule: Q01DX009 (ip), vehicle: Klucel (hydroxypropylcellulose) (HPC)) does the source give for `Cc1c2cnccc2c(C)c2c1c1ccccc1n2CC1CO1` (centres undefined) here?
A: 145 % of control

Q: And the T/C (dose: 6.25 mg/kg/injection, schedule: Q01DX009 (ip), vehicle: Klucel (hydroxypropylcellulose) (HPC))?
A: 140 % of control

Q: What does the source list for `COc1ccc(-c2c(C)c(C)nc(Cl)c2C#N)c(OCc2ccccc2)c1OC`?
A: survivor count (dose: 0.05 mg/kg/injection, schedule: Q01DX009 (ip), vehicle: Klucel (hydroxypropylcellulose) (HPC)): 6 of 6; survivor count (dose: 0.2 mg/kg/injection, schedule: Q01DX009 (ip), vehicle: Klucel (hydroxypropylcellulose) (HPC)): 6 of 6; survivor count (dose: 0.4 mg/kg/injection, schedule: Q01DX009 (ip), vehicle: Klucel (hydroxypropylcellulose) (HPC)): 6 of 6

Q: `CN1C(=O)C(Br)=C(c2cccs2)C1=O` was tested. Which survivor count (dose: 100.0 mg/kg/injection, schedule: Q01DX001 (ip), vehicle: saline with Tween-80) did it give?
A: 0 of 6

Q: How did the survivor count (dose: 400.0 mg/kg/injection, schedule: Q01DX001 (ip), vehicle: saline with Tween-80) turn out when `CC(C)(C)c1cccc(C(C)(C)C)c1` was run?
A: 4 of 6

Q: Which survivor count [1] does the source give for `[C-]#[N+]C(C)Cc1ccccc1` (centres undefined) here?
A: 0 of 6

Q: And the survivor count [2]?
A: 0 of 6

Q: And the survivor count [5]?
A: 0 of 6

Q: How did the T/C (dose: 133.0 mg/kg/injection, schedule: Q01DX009 (ip), vehicle: saline with Tween-80) turn out when `CCCCOB(/C=C/Sc1ccccc1)OCCCC` was run?
A: 127 % of control

Q: And the T/C [4]?
A: 127, 133, 135 % of control

Q: What about the T/C (dose: 300.0 mg/kg/injection, schedule: Q01DX009 (ip), vehicle: saline with Tween-80) of the same compound?
A: 125 % of control

Q: And the survivor count [6]?
A: 1 of 6

Q: With `Cc1nc2ccccc2nc1CBr` as the compound, how does the T/C (dose: 3.2 mg/kg/injection, schedule: Q01DX009 (ip), vehicle: Klucel (hydroxypropylcellulose) (HPC)) read?
A: 133 % of control

Q: And the T/C (dose: 4.0 mg/kg/injection, schedule: Q01DX009 (ip), vehicle: saline with Tween-80)?
A: 127 % of control

Q: And the T/C (dose: 6.25 mg/kg/injection, schedule: Q01DX009 (ip), vehicle: saline with Tween-80)?
A: 145 % of control

Q: What about the T/C (dose: 9.0 mg/kg/injection, schedule: Q01DX009 (ip), vehicle: saline with Tween-80) of the same compound?
A: 127 % of control

Q: And the T/C (dose: 12.5 mg/kg/injection, schedule: Q01DX009 (ip), vehicle: Klucel (hydroxypropylcellulose) (HPC))?
A: 144 % of control

Q: And the T/C (dose: 12.5 mg/kg/injection, schedule: Q01DX009 (ip), vehicle: saline with Tween-80)?
A: 127 % of control

Q: What about the T/C [7] of the same compound?
A: 144 % of control

Q: What about the survivor count [7] of the same compound?
A: 6 of 6

Q: And the survivor count (dose: 50.0 mg/kg/injection, schedule: Q01DX009 (ip), vehicle: Klucel (hydroxypropylcellulose) (HPC))?
A: 0 of 6 and 4 of 6

Q: And the survivor count [1]?
A: 2 of 6

Q: What about the survivor count [2] of the same compound?
A: 0 of 6

Q: And the survivor count [5]?
A: 0 of 6

Q: Which T/C (dose: 0.56 mg/kg/injection, schedule: Q01DX009 (ip), vehicle: saline with Tween-80) does the source give for `CC(=O)Oc1ccc(/C=N/NC(N)=S)nc1` here?
A: 131 % of control

Q: And the T/C (dose: 0.88 mg/kg/injection, schedule: Q01DX009 (ip), vehicle: saline with Tween-80)?
A: 138 % of control

Q: What about the T/C (dose: 1.33 mg/kg/injection, schedule: Q01DX009 (ip), vehicle: saline with Tween-80) of the same compound?
A: 145 % of control

Q: What about the T/C (dose: 2.0 mg/kg/injection, schedule: Q01DX009 (ip), vehicle: saline with Tween-80) of the same compound?
A: 141 % of control

Q: What about the survivor count [6] of the same compound?
A: 6 of 6

Q: `OC1CCCC2CCC[N-]C12.OC1CCCC2CCC[N-]C12.[O]=[V][OH]` (centres undefined) was tested. Which survivor count [8] did it give?
A: 3 of 6

Q: And the survivor count [9]?
A: 1 of 6

Q: `C(=C/c1ccc(/C=C/c2ccccc2)cc1)/c1ccccc1` was tested. Which T/C (dose: 100.0 mg/kg/injection, schedule: Q01DX009 (ip), vehicle: Klucel (hydroxypropylcellulose) (HPC)) did it give?
A: 131 % of control

Q: What about the T/C (dose: 200.0 mg/kg/injection, schedule: Q01DX009 (ip), vehicle: Klucel (hydroxypropylcellulose) (HPC)) of the same compound?
A: 127 % of control [5 of 6 alive]

Q: How did the survivor count [4] turn out when `O=C1NN=C(c2ccc(Br)cc2)CS1` was run?
A: 4 of 6

Q: And the survivor count [6]?
A: 1 of 6

Q: For `COc1cccc2c1C(=O)c1c(O)c3c(c(O)c1C2=O)C[C@@](O)(/C(C)=N\NC=O)C[C@@H]3OC1CC(N)C(O)C(C)O1` (some centres undefined), which T/C (dose: 4.0 mg/kg/injection, schedule: Q01DX009 (ip), vehicle: saline) is on record?
A: 126 % of control

Q: And the T/C (dose: 8.0 mg/kg/injection, schedule: Q01DX009 (ip), vehicle: saline)?
A: 126 % of control [5 of 6 alive]

Q: `S=c1sc(-c2ccccc2)c[se]1` was tested. Which survivor count (dose: 100.0 mg/kg/injection, schedule: Q01DX009 (ip), vehicle: saline + Tween-80 + alcohol) did it give?
A: 5 of 6

Q: Which survivor count [3] does the source give for `[NH-]C(CCC(N)=O)C(=O)O.[NH-]C(CCC(N)=O)C(=O)O.[Zn+2]` (centres undefined) here?
A: 2 of 6

Q: How did the survivor count [2] turn out when `O=C(COc1ccc([N+](=O)[O-])cc1)Nc1cccnc1` was run?
A: 6 of 6

Q: `CC(=O)c1ccc(Oc2ccc(/C(C)=N\N=C(N)N)cc2)cc1` was tested. Which T/C [8] did it give?
A: 125 and 129 % of control

Q: And the T/C (dose: 37.5 mg/kg/injection, schedule: Q01DX009 (ip), vehicle: saline)?
A: 127 % of control

Q: And the survivor count [9]?
A: 3 of 6 and 4 of 6

Q: And the survivor count [10]?
A: 0 of 6

Q: For `O=C1c2cc3c(cc2CCC1c1ccc2c(c1)OCO2)OCO3` (centres undefined), which survivor count (dose: 80.0 mg/kg/injection, schedule: Q01DX009 (ip), vehicle: saline with Tween-80) is on record?
A: 6 of 6

Q: Which survivor count (dose: 200.0 mg/kg/injection, schedule: Q04DX003 (ip), vehicle: saline) does the source give for `NNC(=O)c1ccc(Cl)cc1Nc1ccc(F)cc1` here?
A: 0 of 6

Q: How did the T/C [3] turn out when `Cc1cc(O)c(NCCCN(C)C)c2c(=O)c3ccccc3sc12` was run?
A: 126 % of control

Q: With `CC(C)OC(=O)c1ccc(C(C)C)cc1` as the compound, how does the survivor count [6] read?
A: 1 of 6

Q: With `CCCNC(=O)OCc1c(COC(=O)NCCC)c(-c2ccc(Cl)c(Cl)c2)n2c1CCC2` as the compound, how does the T/C (dose: 12.5 mg/kg/injection, schedule: Q01DX009 (ip), vehicle: other) read?
A: 133 % of control

Q: And the survivor count (dose: 100.0 mg/kg/injection, schedule: Q01DX009 (ip), vehicle: other)?
A: 5 of 6

Q: What about the survivor count (dose: 200.0 mg/kg/injection, schedule: Q01DX009 (ip), vehicle: other) of the same compound?
A: 0 of 6

Q: With `CCCCN(CCCC)CCCC#N` as the compound, how does the T/C [3] read?
A: 129 % of control

Q: What about the T/C [10] of the same compound?
A: 129 % of control

Q: And the T/C (dose: 150.0 mg/kg/injection, schedule: Q01DX009 (ip), vehicle: saline with Tween-80)?
A: 125 % of control

Q: For `O=[N+]([O-])c1cc([N+](=O)[O-])c2ccccc2c1NS(=O)(=O)c1ccc(Cl)c(Cl)c1Cl`, which T/C [4] is on record?
A: 127 % of control [4 of 6 alive]

Q: With `CC(=O)OC(=O)C(Cc1ccccc1)NC(=O)C(N)CCCN=C(N)N` (centres undefined) as the compound, how does the survivor count (dose: 200.0 mg/kg/injection, schedule: Q01DX005 (ip), vehicle: saline with Tween-80) read?
A: 0 of 6

Q: With `COc1cc2c(cc1OC)C1CNC(=O)C1C(c1ccccc1)C2` (centres undefined) as the compound, how does the survivor count (dose: 100.0 mg/kg/injection, schedule: Q01DX001 (ip), vehicle: Klucel (hydroxypropylcellulose) (HPC)) read?
A: 6 of 6
